{"source": "PubChem BioAssay AID493246 | Drosophila RNAi Screening Center, 2011", "aim": "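Genome-wide search for dsRNAs that reduce cell number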 (primary screen)", "cell system": "Drosophila Kc and S2R+ cells", "knock-down reagent": "long dsRNA against Drosophila genes", "read-out": "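Cell number per well after knock-down, printed as raw plate values; calls were based on per-plate z-scores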", "scale": "Kc cell number and S2R+ cell number: higher = more cells remaining", "hit rule": "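Active when the per-plate z-score of cell number is 3 or more in the direction of fewer cells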", "note": "The screen tested about 21,000 reagents; shown is a random part of those with a known target gene and a result. Of all reagents, 429 (2%) got an active call. 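Values are raw and not normalised between plates; calls rest on per-plate z-scores that were not deposited.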 A number with no mark means an inactive call. A plus sign joins genes that one reagent is predicted to hit. Not given: the amount of reagent, the time to read-out."}
{"Gene": "CG42527 (retired record) + Hr4", "DRSC id": "DRSC18495", "Kc cell number, rep 1": "1.11e6 (active)", "Kc cell number, rep 2": 1.08e6, "S2R+ cell number, rep 1": 5.12e5, "S2R+ cell number, rep 2": 6.05e5}
{"Gene": "Ge-1", "DRSC id": "DRSC02938", "Kc cell number, rep 1": 1.24e6, "Kc cell number, rep 2": 1.31e6, "S2R+ cell number, rep 1": 1.06e6, "S2R+ cell number, rep 2": 1.16e6}
{"Gene": "CG14346", "DRSC id": "DRSC00376", "Kc cell number, rep 1": 1.51e6, "Kc cell number, rep 2": 1.53e6, "S2R+ cell number, rep 1": 1.09e6, "S2R+ cell number, rep 2": 1.23e6}
{"Gene": "Gss1 + Gss2", "DRSC id": "DRSC20008", "Kc cell number, rep 1": 1.61e6, "Kc cell number, rep 2": 1.57e6, "S2R+ cell number, rep 1": 1.13e6, "S2R+ cell number, rep 2": 1.20e6}
{"Gene": "svp (seven up)", "DRSC id": "DRSC12899", "Kc cell number, rep 1": 1.33e6, "Kc cell number, rep 2": 1.53e6, "S2R+ cell number, rep 1": 1.02e6, "S2R+ cell number, rep 2": 1.18e6}
{"Gene": "svp (seven up)", "DRSC id": "DRSC15311", "Kc cell number, rep 1": "3.06e5 (active)", "Kc cell number, rep 2": 3.18e5, "S2R+ cell number, rep 1": 4.78e5, "S2R+ cell number, rep 2": 5.25e5}
{"Gene": "svp (seven up)", "DRSC id": "DRSC17075", "Kc cell number, rep 1": 1.28e6, "Kc cell number, rep 2": 1.32e6, "S2R+ cell number, rep 1": 1.01e6, "S2R+ cell number, rep 2": 1.13e6}
{"Gene": "CG5440", "DRSC id": "DRSC00685", "Kc cell number, rep 1": 1.71e6, "Kc cell number, rep 2": 1.74e6, "S2R+ cell number, rep 1": 9.96e5, "S2R+ cell number, rep 2": 1.13e6}
{"Gene": "klg (klingon)", "DRSC id": "DRSC13591", "Kc cell number, rep 1": 1.61e6, "Kc cell number, rep 2": 1.60e6, "S2R+ cell number, rep 1": 1.08e6, "S2R+ cell number, rep 2": 1.28e6}
{"Gene": "klg (klingon)", "DRSC id": "DRSC16978", "Kc cell number, rep 1": 1.63e6, "Kc cell number, rep 2": 1.57e6, "S2R+ cell number, rep 1": 8.60e5, "S2R+ cell number, rep 2": 1.04e6}
{"Gene": "CG15278", "DRSC id": "DRSC02481", "Kc cell number, rep 1": 1.51e6, "Kc cell number, rep 2": 1.54e6, "S2R+ cell number, rep 1": 1.30e6, "S2R+ cell number, rep 2": 1.45e6}
{"Gene": "Eaat2 (Excitatory amino acid transporter 2)", "DRSC id": "DRSC00032", "Kc cell number, rep 1": 1.55e6, "Kc cell number, rep 2": 1.56e6, "S2R+ cell number, rep 1": 1.09e6, "S2R+ cell number, rep 2": 1.22e6}
{"Gene": "Eaat2 (Excitatory amino acid transporter 2)", "DRSC id": "DRSC00749", "Kc cell number, rep 1": 1.31e6, "Kc cell number, rep 2": 1.30e6, "S2R+ cell number, rep 1": 9.34e5, "S2R+ cell number, rep 2": 1.03e6}
{"Gene": "CG9922", "DRSC id": "DRSC16579", "Kc cell number, rep 1": 1.19e6, "Kc cell number, rep 2": 1.35e6, "S2R+ cell number, rep 1": 1.14e6, "S2R+ cell number, rep 2": 1.27e6}
